Measurements reported in the supplement of paper PMC4962491.
± gives the standard deviation of the averaged measurements. This is a selection; strong and weak results do not stand in their true shares. This data set is noisy: repeats of one test often differ as much as different tests do.

Test system: FaDu
Experiment: mitochondrial oxygen consumption rate normalised to cell number, Z score over the library; higher = higher oxygen consumption (negative = OCR reduction)
Settings: treatment time 24 h, assay medium: 5 mM galactose, 5 mM pyruvate, 4 mM glutamine
Description: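 Primary screen: FaDu cells were incubated 24 h with Pharmakon 1600 / TDI oncology set compounds at 2 or 10 uM. Mitochondrial-specific OCR (basal minus 2 uM antimycin A) was measured on a Seahorse XF96 in assay medium with 5 mM galactose, 5 mM pyruvate and 4 mM glutamine, then corrected for Hoechst cell number and expressed as a Z score […]. Compounds that cut cell number by >66% were excluded. Two repeats.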

SMILES | mitochondrial oxygen consumption rate normalised (2 µM) | mitochondrial oxygen consumption rate normalised (10 µM)
CN1C(=O)OC(C)(C)C1=O | -0.261 ± 0.081 | 
C[C@H]1O[C@@H](n2cc(F)c(=O)[nH]c2=O)[C@H](O)[C@@H]1O | 0.844 ± 1.4 | 
O=C(O)c1cc(=O)[nH]c(=O)[nH]1 | -0.929 ± 1.1 | 
CC(=O)NCCCCCC(=O)O | -0.0632 ± 0.53 | 
O=c1n(CCCN2CCN(c3cccc(Cl)c3)CC2)nc2ccccn12 | 0.899 ± 0.19 | 
C=C[C@H]1CN2CC[C@H]1C[C@H]2[C@H](O)c1ccnc2ccc(OC)cc12 | -0.355 ± 0.27 | 
CC1(C)S[C@@H]2[C@H](NC(=O)[C@H](N)c3ccccc3)C(=O)N2[C@H]1C(=O)O | -0.0185 ± 1.1 | 
Nc1cc(N2CCCCC2)nc(N)[n+]1[O-] | 0.102 ± 0.15 | 
C[C@]12CCC(=O)C=C1[C@@H]1C[C@@H]1[C@H]1[C@@H]3[C@@H]4C[C@@H]4[C@@]4(CCC(=O)O4)[C@@]3(C)CC[C@@H]12 | 0.227 ± 1.3 | 
Cc1ncc([N+](=O)[O-])n1CC(C)O (stereo not given) | -0.317 ± 0.1 | 
C/C=C(/C(=C/C)c1ccc(O)cc1)c1ccc(O)cc1 | -0.692 ± 1.2 | 
O=C(O)c1ccccc1OP(=O)(O)O | 0.925 ± 1.2 | 
CC1=C(/C=C/C(C)=C/C=C/C(C)=C/CO)C(C)(C)CCC1 | 0.62 ± 0.082 | 
CC(=O)O[C@H]1C(=O)[C@@]2(C)[C@H]([C@H](OC(=O)c3ccccc3)[C@]3(O)C[C@H](OC(=O)[C@H](O)[C@@H](NC(=O)c4ccccc4)c4ccccc4)C(C)=C1C3(C)C)[C@]1(OC(C)=O)CO[C@@H]1C[C@@H]2O [Paclitaxel] | -0.0387 ± 0.15 | 
CC(=O)O[C@H]1C(=O)[C@@]2(C)[C@H]([C@H](OC(=O)c3ccccc3)[C@]3(O)C[C@H](OC(=O)[C@H](O)[C@@H](NC(=O)c4ccccc4)c4ccccc4)C(C)=C1C3(C)C)[C@]1(OC(C)=O)CO[C@@H]1C[C@@H]2O | 0.397 ± 2 | 
C/C=C/c1ccc(OC)cc1 | 0.203 ± 0.99 | 
O[C@H]1[C@H](O)[C@@H](O)[C@H](O)[C@@H](O)[C@H]1O | -0.544 ± 0.63 | 
CCCN(CCC)CCc1cccc2c1CC(=O)N2 | 0.776 ± 0.65 | 
COc1cccc2c1C(=O)c1c(O)c3c(c(O)c1C2=O)C[C@@](O)(C(=O)CO)C[C@@H]3O[C@H]1C[C@H](N)[C@@H](O)[C@H](C)O1 | -1.99 ± 0.022 | -2.82 ± 0.22
Cc1nc2ccccn2c(=O)c1CCN1CCC(C(=O)c2ccc(F)cc2)CC1 | 0.205 ± 0.21 | 
CSc1nc2cc(Cl)c(Oc3cccc(Cl)c3Cl)cc2[nH]1 | 0.0964 ± 0.46 | 

SMILES | mitochondrial oxygen consumption rate normalised (2 µM) | mitochondrial oxygen consumption rate normalised (10 µM)
O=C(CCNNC(=O)c1ccncc1)NCc1ccccc1 | -0.121 ± 0.53 | 
CC(C)(C)CC(C)(C)c1cc(Cc2cc(C(C)(C)CC(C)(C)C)cc(-n3nc4ccccc4n3)c2O)c(O)c(-n2nc3ccccc3n2)c1 | 0.442 ± 0.22 | 
NC(=O)c1cnccn1 | -0.254 ± 0.12 | 
CC(C)OC(=O)C(C)(C)Oc1ccc(C(=O)c2ccc(Cl)cc2)cc1 | -0.083 ± 0.062 | 
CCOC(=S)SSC(=S)OCC | 0.744 ± 0.72 | 
Cc1cc2c(s1)Nc1ccccc1N=C2N1CCN(C)CC1 | -0.748 ± 0.053 | 
NC(=O)CC[C@H](N)C(=O)O | 0.104 ± 0.48 | 
O=C1c2ccccc2C(=O)C1c1ccc(Br)cc1 | 0.466 ± 0.045 | 
CC=CC1=C(C(=O)O)N2C(=O)[C@@H](NC(=O)[C@H](N)c3ccc(O)cc3)[C@H]2SC1 | 0.749 ± 0.37 | 
CC(=O)N(c1onc(C)c1C)S(=O)(=O)c1ccc(N)cc1 | -0.284 ± 0.5 | 
Cc1cc(O)cc(C)c1Cl | 0.42 ± 0.029 | 
Cc1cn(-c2cc(NC(=O)c3ccc(C)c(Nc4nccc(-c5cccnc5)n4)c3)cc(C(F)(F)F)c2)cn1 [Nilotinib] | 0.077 ± 0.28 | 
Oc1cccc(O)c1 | 0.629 ± 0.54 | 
CN1CCCN=C1/C=C/c1cccc(O)c1 | 0.202 ± 1 | 0.441 ± 0.03
N#CCC(=O)NN | 1.21 ± 0.42 | 
CC(N)CCCC(C)(C)O (stereo not given) | -0.9811 ± 0.0052 | 
O=C(O)c1cc(/N=N/c2ccc(S(=O)(=O)Nc3ccccn3)cc2)ccc1O | -0.925 ± 0.63 | 
CN/C(=N\CCSCc1nc[nH]c1C)NC#N | 0.0519 ± 0.65 | 
C/C(=C\C(=O)OCCCCCCCCC(=O)O)C[C@@H]1OC[C@H](C[C@@H]2O[C@H]2[C@@H](C)[C@H](C)O)[C@@H](O)[C@H]1O | 0.136 ± 0.57 | 
CC1/C=C/C=C/C=C/C=C/C=C/C=C/C=C/C(OC2O[C@H](C)[C@@H](O)[C@H](N)[C@@H]2O)CC(O)C(C(=O)O)C(O)CC(=O)CC(O)CC(O)CC(O)CC(=O)CCCC(=O)CC(=O)OC1C(C)CC(C)C(O)CC(=O)c1ccc(N)cc1 (stereo not given in full) | -0.749 ± 0.52 | 
O=C(O)c1ccccc1O | 1.52 ± 1.4 | 

Single values from above:
Entry for O=C1c2ccccc2C(=O)C1c1ccc(Br)cc1 under mitochondrial oxygen consumption rate normalised (2 µM): 0.466 ± 0.045
Entry for O=C(O)c1cc(/N=N/c2ccc(S(=O)(=O)Nc3ccccn3)cc2)ccc1O under mitochondrial oxygen consumption rate normalised (2 µM): -0.925 ± 0.63

Carrying on.

SMILES | mitochondrial oxygen consumption rate normalised (2 µM) | mitochondrial oxygen consumption rate normalised (10 µM)
O=c1oc2cc(O)ccc2s1 | -0.555 ± 0.6 | 
CCOc1ccc2nc(S(N)(=O)=O)sc2c1 | 0.564 ± 0.15 | 
C[C@@H]1C[C@H]2[C@@H]3CCC4=CC(=O)C=C[C@]4(C)[C@@]3(Cl)[C@@H](O)C[C@]2(C)[C@@]1(OC(=O)c1ccco1)C(=O)CCl | -0.0272 ± 0.76 | 
C[N+](C)(C)CC(=O)O | -0.591 ± 0.54 | 
O=C(O)c1ccccc1C(=O)Nc1ccc(S(=O)(=O)Nc2nccs2)cc1 | 1.21 ± 0.29 | 
OCCN(CCO)c1nc(N2CCCCC2)c2nc(N(CCO)CCO)nc(N3CCCCC3)c2n1 | -0.668 ± 0.35 | 
CN1CCN(C(c2ccccc2)c2ccccc2)CC1 | 0.55 ± 0.032 | 
C[C@]12CC[C@@H]3c4ccc(OC(=O)c5ccccc5)cc4CC[C@H]3[C@@H]1CC[C@@H]2O | 0.561 ± 0.12 | 
C[C@@H]1C[C@H]2[C@@H]3CCC4=CC(=O)C=C[C@]4(C)[C@@]3(F)[C@@H](O)C[C@]2(C)[C@@]1(O)C(=O)COP(=O)(O)O | -0.545 ± 0.62 | 
CCN(CC)CCNC(C(=O)OCCC(C)C)c1ccccc1 (stereo not given) | -0.573 ± 0.39 | 
Cc1c(-c2cnccn2)ssc1=S | -0.732 ± 0.15 | -0.416 ± 0.25
C(=C\c1ccccc1)/CN1CCN(C(c2ccccc2)c2ccccc2)CC1 | 0.217 ± 0.79 | 
N[C@@H](Cc1cc(I)c(Oc2ccc(O)c(I)c2)c(I)c1)C(=O)O [LIOTHYRONINE (L- isomer) SODIUM] | 0.587 ± 0.92 | 
N[C@@H](Cc1cc(I)c(Oc2ccc(O)c(I)c2)c(I)c1)C(=O)O | 0.693 ± 0.15 | 
Nc1c2ccccc2nc2ccccc12 | 0.247 ± 0.15 | -1.9 ± 0.35
CN1CCC(=C2c3ccccc3Sc3ccccc32)CC1 | -0.432 ± 0.25 | 
C[C@H](CCC(=O)O)[C@H]1CC[C@H]2[C@@H]3[C@@H](O)C[C@@H]4C[C@H](O)CC[C@]4(C)[C@H]3CC[C@]12C | -0.501 ± 1.1 | 
CC1CC(OC(=O)c2ccccc2O)CC(C)(C)C1 (stereo not given) | -0.723 ± 0.39 | 
NC[C@@H]1O[C@@H](O[C@H]2[C@H](O)[C@@H](O[C@H]3O[C@H](CO)[C@@H](O)[C@H](N)[C@H]3O)[C@H](N)C[C@@H]2N)[C@@H](O)[C@H](O)[C@H]1O | -0.735 ± 0.2 | 
